Data as given in PubChem BioAssay AID1224831 (NIAID, 2016)
Assay: 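Confirming genome-wide hits on LPS-triggered TNF-alpha induction with independent siRNA sequences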 (follow-up of hits). System: human THP-1 B5 monocytic leukaemia cells carrying a TNF promoter luciferase reporter, made macrophage-like with PMA. Knock-down reagent: single siRNA against human genes, 50 nM. Time to read-out: about 68 h of knock-down, then 4 h LPS. Conditions: LPS (Salmonella minnesota, TLR-grade) at 10 ng/ml for 4 h; PMA 5 ng/ml present during knock-down. Measurement: 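TNF promoter reporter read as dual luciferase ratio after 4 h LPS, normalised per plate to its median, given as replicate mean robust z-score per siRNA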. Reading the numbers: TNF reporter z-score: higher = stronger LPS-induced TNF reporter signal; z-score, median over gene's siRNAs: higher = stronger TNF reporter signal across the gene's siRNAs. Rule for the call: 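Active when the replicate mean z-score is about -1 or lower, or about 1.5 or higher; lowered and raised TNF reporter signal both count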. Calls: active = changed TNF reporter (either direction); inactive = little change.
Shown is one part, drawn at random, of about 3,500 reagents. 731 of them (21%) count as active. 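Active means either lowered or raised reporter signal; the gene-median score did not drive the per-siRNA calls.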 Entries without a mark were called inactive. The numbers tell different reagents against one gene apart.

The opening 4 entries, ahead of the listing:
| TNF reporter z-score, replicate mean | z-score, median over gene's siRNAs | gene symbol | siRNA no. |
| --- | --- | --- | --- |
| 1.42 | 0.7 | GINS2 (GINS complex subunit 2) | 1 |
| 0.12 | 0.7 | GINS2 (GINS complex subunit 2) | 2 |
| 0.73 | 0.7 | GINS2 (GINS complex subunit 2) | 3 |
| 1.06 | 0.7 | GINS2 (GINS complex subunit 2) | 4 |

Main list, from the start:
| TNF reporter z-score, replicate mean | z-score, median over gene's siRNAs | gene symbol | siRNA no. |
| --- | --- | --- | --- |
| 1.42 | 0.7 | GINS2 (GINS complex subunit 2) | 1 |
| 0.12 | 0.7 | GINS2 (GINS complex subunit 2) | 2 |
| 0.73 | 0.7 | GINS2 (GINS complex subunit 2) | 3 |
| 1.06 | 0.7 | GINS2 (GINS complex subunit 2) | 4 |
| -0.61 | 0.7 | GINS2 (GINS complex subunit 2) | 5 |
| 0.67 | 0.7 | GINS2 (GINS complex subunit 2) | 6 |
| -0.05 | 0.51 | RNASEL (ribonuclease L) | 1 |
| 0.62 | 0.51 | RNASEL (ribonuclease L) | 2 |
| 0.47 | 0.51 | RNASEL (ribonuclease L) | 3 |
| -0.98 | 0.51 | RNASEL (ribonuclease L) | 4 |
| 0.55 | 0.51 | RNASEL (ribonuclease L) | 5 |
| 1.53 (active) | 0.51 | RNASEL (ribonuclease L) | 6 |
| 0.06 | 0.28 | MAD1L1 (mitotic arrest deficient 1 like 1) | 1 |
| 1.03 | 0.28 | MAD1L1 (mitotic arrest deficient 1 like 1) | 2 |
| -1.06 (active) | 0.28 | MAD1L1 (mitotic arrest deficient 1 like 1) | 3 |
| 0.61 | 0.28 | MAD1L1 (mitotic arrest deficient 1 like 1) | 4 |
| -0.14 | 0.28 | MAD1L1 (mitotic arrest deficient 1 like 1) | 5 |
| 0.5 | 0.28 | MAD1L1 (mitotic arrest deficient 1 like 1) | 6 |
| 0.36 | 0.26 | LOXL2 (lysyl oxidase like 2) | 1 |
| 0.16 | 0.26 | LOXL2 (lysyl oxidase like 2) | 2 |
| -0.23 | 0.26 | LOXL2 (lysyl oxidase like 2) | 3 |
| -0.52 | 0.26 | LOXL2 (lysyl oxidase like 2) | 4 |
| 0.56 | 0.26 | LOXL2 (lysyl oxidase like 2) | 5 |
| 0.53 | 0.26 | LOXL2 (lysyl oxidase like 2) | 6 |
| 0.37 | 1.57 | HAPLN3 (hyaluronan and proteoglycan link protein 3) | 1 |
| 1.92 (active) | 1.57 | HAPLN3 (hyaluronan and proteoglycan link protein 3) | 2 |
| 1.23 | 1.57 | HAPLN3 (hyaluronan and proteoglycan link protein 3) | 3 |
| 4.74 (active) | 1.57 | HAPLN3 (hyaluronan and proteoglycan link protein 3) | 4 |
| 6.07 (active) | 1.57 | HAPLN3 (hyaluronan and proteoglycan link protein 3) | 5 |
| -0.67 | 1.57 | HAPLN3 (hyaluronan and proteoglycan link protein 3) | 6 |
| 2.44 (active) | 1.05 | C1orf226 (chromosome 1 open reading frame 226) | 1 |
| -0.08 | 1.05 | C1orf226 (chromosome 1 open reading frame 226) | 2 |
| 1.85 (active) | 1.05 | C1orf226 (chromosome 1 open reading frame 226) | 3 |
| -0.41 | 1.05 | C1orf226 (chromosome 1 open reading frame 226) | 4 |
| 0.26 | 1.05 | C1orf226 (chromosome 1 open reading frame 226) | 5 |
| 3.12 (active) | 1.05 | C1orf226 (chromosome 1 open reading frame 226) | 6 |
| -0.01 | 0.245 | KIN (Kin17 DNA and RNA binding protein) | 1 |
| -0.45 | 0.245 | KIN (Kin17 DNA and RNA binding protein) | 2 |
| 0.5 | 0.245 | KIN (Kin17 DNA and RNA binding protein) | 3 |
| 1.5 (active) | 0.245 | KIN (Kin17 DNA and RNA binding protein) | 4 |
| 1.71 (active) | 0.245 | KIN (Kin17 DNA and RNA binding protein) | 5 |
| -0.3 | 0.245 | KIN (Kin17 DNA and RNA binding protein) | 6 |
| 0.34 | -0.11 | GDF9 (growth differentiation factor 9) | 1 |
| 0.26 | -0.11 | GDF9 (growth differentiation factor 9) | 2 |
| 0.27 | -0.11 | GDF9 (growth differentiation factor 9) | 3 |
| -0.74 | -0.11 | GDF9 (growth differentiation factor 9) | 4 |
| -0.48 | -0.11 | GDF9 (growth differentiation factor 9) | 5 |
| -0.56 | -0.11 | GDF9 (growth differentiation factor 9) | 6 |
| -0.23 | -0.095 | PRAF2 (PRA1 domain family member 2) | 1 |
| 0.04 | -0.095 | PRAF2 (PRA1 domain family member 2) | 2 |
| -0.3 | -0.095 | PRAF2 (PRA1 domain family member 2) | 3 |
| -0.55 | -0.095 | PRAF2 (PRA1 domain family member 2) | 4 |
| 0.6 | -0.095 | PRAF2 (PRA1 domain family member 2) | 5 |
| 1.39 | -0.095 | PRAF2 (PRA1 domain family member 2) | 6 |
| 0.07 | 0.295 | SIK1 (salt inducible kinase 1) | 1 |
| 0.52 | 0.295 | SIK1 (salt inducible kinase 1) | 2 |
| 0.61 | 0.295 | SIK1 (salt inducible kinase 1) | 3 |
| -0.69 | 0.295 | SIK1 (salt inducible kinase 1) | 4 |
| 1.09 | 0.295 | SIK1 (salt inducible kinase 1) | 5 |
| -0.64 | 0.295 | SIK1 (salt inducible kinase 1) | 6 |
| 0.8 | -0.005 | TWF2 (twinfilin actin binding protein 2) | 1 |
| -0.24 | -0.005 | TWF2 (twinfilin actin binding protein 2) | 2 |
| 0.23 | -0.005 | TWF2 (twinfilin actin binding protein 2) | 3 |
| -0.57 | -0.005 | TWF2 (twinfilin actin binding protein 2) | 4 |
| -0.63 | -0.005 | TWF2 (twinfilin actin binding protein 2) | 5 |
| 0.97 | -0.005 | TWF2 (twinfilin actin binding protein 2) | 6 |
| 1.44 | 0.53 | HTR3A (5-hydroxytryptamine receptor 3A) | 1 |
| 0.93 | 0.53 | HTR3A (5-hydroxytryptamine receptor 3A) | 2 |
| 0.13 | 0.53 | HTR3A (5-hydroxytryptamine receptor 3A) | 3 |
| 0.06 | 0.53 | HTR3A (5-hydroxytryptamine receptor 3A) | 4 |
| -1.05 (active) | 0.53 | HTR3A (5-hydroxytryptamine receptor 3A) | 5 |
| 1.09 | 0.53 | HTR3A (5-hydroxytryptamine receptor 3A) | 6 |
| -0.2 | 0.19 | PRR14 (proline rich 14) | 1 |
| -0.39 | 0.19 | PRR14 (proline rich 14) | 2 |
| -0.23 | 0.19 | PRR14 (proline rich 14) | 3 |
| 0.58 | 0.19 | PRR14 (proline rich 14) | 4 |
| 0.92 | 0.19 | PRR14 (proline rich 14) | 5 |
| 0.79 | 0.19 | PRR14 (proline rich 14) | 6 |
| 0.57 | -0.045 | CLEC12B (C-type lectin domain family 12 member B) | 1 |
| -1.4 (active) | -0.045 | CLEC12B (C-type lectin domain family 12 member B) | 2 |
| 0.99 | -0.045 | CLEC12B (C-type lectin domain family 12 member B) | 3 |
| -0.3 | -0.045 | CLEC12B (C-type lectin domain family 12 member B) | 4 |
| -0.62 | -0.045 | CLEC12B (C-type lectin domain family 12 member B) | 5 |
| 0.21 | -0.045 | CLEC12B (C-type lectin domain family 12 member B) | 6 |
